From the supplement of paper PMC4604168 (melanoma cell lines)
The list shows a part of the results. Single values are uncertain, as repeats are few or missing.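 The apoptosis fraction was the count of cleaved-PARP antibody-stained nuclei relative to all DNA-stained nuclei, imaged in 1,536-well plates. Screening doses were set so most cells survived, and baseline and induced cleaved-PARP levels vary greatly across cell lines.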

test system: UACC257; experiment: cleaved PARP positive nuclei fraction relative to DMSO control; melanoma cells; higher = more apoptosis; settings: library dose: low library concentration; 72 h

SMILES | cleaved PARP positive nuclei fraction
CC(C)C[C@H](NC(=O)[C@H](Cc1ccccc1)NC(=O)c1cnccn1)B(O)O [Bortezomib] + COc1ccc2c(c1)CCC1C2CCC2(C)C(NCCCCCCN3C(=O)C=CC3=O)CCC12 [U73122] (first compound 0.001 µM, partner dose 0.4 µM) | 375%
Nc1ccn([C@@H]2O[C@H](CO)[C@@H](O)C2(F)F)c(=O)n1 [gemcitabine] + OCCn1cc(-c2cnc3nnn(Cc4ccc5ncccc5c4)c3n2)cn1 [PF04217903] (first compound 0.0004 µM, partner dose 1 µM) | 83.3%
CNC(=O)c1cc(Oc2ccc(NC(=O)Nc3ccc(Cl)c(C(F)(F)F)c3)cc2)ccn1 [sorafenib] + CO[C@@H]1[C@H](N(C)C(=O)c2ccccc2)C[C@H]2O[C@]1(C)n1c3ccccc3c3c4c(c5c6ccccc6n2c5c31)C(=O)NC4 [Midostaurin] (first compound 0.4 µM, partner dose 0.08 µM) | 383%
O=C(O)[C@@H]1[O][Sb](=[O])([O][Sb]2(=[O])[O][C@H]([C@H](O)CO)[C@H](O)[C@H](C(=O)O)[O]2)[O][C@H]([C@H](O)CO)[C@@H]1O (stereo not given in full) [stibogluconate] + Cc1ccc(NC(=O)c2cccc(N(C)C)c2)cc1NC(=O)c1ccc(O)cc1 [ZM336372] (first compound 2 µM, partner dose 2 µM) | 101%
CN1CCN(c2ccc3nc(-c4c(N)c5c(F)cccc5[nH]c4=O)[nH]c3c2)CC1 [Dovitinib] + COc1cc2c(Oc3ccc4[nH]c(C)cc4c3F)ncnc2cc1OCCCN1CCCC1 [cediranib] (first compound 0.1 µM, partner dose 0.4 µM) | 151%
CC(C)C[C@H](NC(=O)[C@H](Cc1ccccc1)NC(=O)c1cnccn1)B(O)O [Bortezomib] + CC(C)CCN1c2nc(Nc3cc(F)c(O)c(F)c3)ncc2N(C)C(=O)C1C [BID1870] (first compound 0.001 µM, partner dose 0.2 µM) | 103%
O=C(O)c1ccc2c(c1)nc(Nc1cccc(Cl)c1)c1ccncc12 + NCC(=O)Nc1ccc(-n2nc(C(F)(F)F)cc2-c2ccc3c(ccc4ccccc43)c2)cc1 [OSU03012] (first compound 0.4 µM, partner dose 1 µM) | 286%
Nc1ncn([C@H]2C[C@H](O)[C@@H](CO)O2)c(=O)n1 [decitabine] + Cn1cc(/C=C2\C(=O)Nc3cccnc32)c2ccccc21 [GW441756] (first compound 0.1 µM, partner dose 0.4 µM) | 165%
CNC(=O)c1cc(Oc2ccc(NC(=O)Nc3ccc(Cl)c(C(F)(F)F)c3)cc2)ccn1 [sorafenib] + Oc1nc(-c2ccc(C(F)(F)F)cc2)nc2c1CSCC2 [XAV939] (first compound 0.4 µM, partner dose 2 µM) | 189%
O=C(O)[C@@H]1[O][Sb](=[O])([O][Sb]2(=[O])[O][C@H]([C@H](O)CO)[C@H](O)[C@H](C(=O)O)[O]2)[O][C@H]([C@H](O)CO)[C@@H]1O (stereo not given in full) [stibogluconate] + C=CCn1c(=O)c2cnc(Nc3ccc(N4CCN(C)CC4)cc3)nc2n1-c1cccc(C(C)(C)O)n1 [MK1775] (first compound 2 µM, partner dose 0.02 µM) | 169%
CC(C)C[C@H](NC(=O)[C@H](Cc1ccccc1)NC(=O)c1cnccn1)B(O)O [Bortezomib] + O=c1cc(-c2cccc3c2Sc2ccccc2S3)oc(N2CCOCC2)c1 [KU55933] (first compound 0.001 µM, partner dose 1 µM) | 366%
Cn1c(=O)n(-c2ccc(C(C)(C)C#N)cc2)c2c3cc(-c4cnc5ccccc5c4)ccc3ncc21 + OCCn1cc(-c2cnc3nnn(Cc4ccc5ncccc5c4)c3n2)cn1 [PF04217903] (first compound 0.004 µM, partner dose 1 µM) | 77%
Cn1c(=O)n(-c2ccc(C(C)(C)C#N)cc2)c2c3cc(-c4cnc5ccccc5c4)ccc3ncc21 + c1cc(-c2cnn3cc(-c4ccc(OCCN5CCCCC5)cc4)cnc23)ccn1 [Dorsomorphin] (first compound 0.004 µM, partner dose 0.4 µM) | 129%
O=C(O)c1ccc2c(c1)nc(Nc1cccc(Cl)c1)c1ccncc12 + COc1ccc(-c2ccc3c(N4CCOCC4)nc(N4C[C@@H](C)O[C@@H](C)C4)nc3n2)cc1CO [KU0063794] (first compound 0.4 µM, partner dose 0.02 µM) | 184%

test system: UACC62; experiment: as above; settings: library dose: low library concentration; 72 h

SMILES | cleaved PARP positive nuclei fraction
O=C(O)[C@@H]1[O][Sb](=[O])([O][Sb]2(=[O])[O][C@H]([C@H](O)CO)[C@H](O)[C@H](C(=O)O)[O]2)[O][C@H]([C@H](O)CO)[C@@H]1O (stereo not given in full) [stibogluconate] + OCCn1cc(-c2cnc3nnn(Cc4ccc5ncccc5c4)c3n2)cn1 [PF04217903] (first compound 2 µM, partner dose 1 µM) | 77.4%
C[C@@H](Oc1cc(-c2cnn(C3CCNCC3)c2)cnc1N)c1c(Cl)ccc(F)c1Cl [Crizotinib] + Oc1cc(-c2nc(-c3ccccc3)[nH]c2-c2ccncc2)ccc1Cl [L779450] (first compound 0.2 µM, partner dose 0.2 µM) | 127%
C[C@@H](Oc1cc(-c2cnn(C3CCNCC3)c2)cnc1N)c1c(Cl)ccc(F)c1Cl [Crizotinib] + CCCCCCCCCCCC1=C(O)C(=O)C=C(O)C1=O [Embelin] (first compound 0.2 µM, partner dose 1.2 µM) | 79.3%
Nc1ncn([C@H]2C[C@H](O)[C@@H](CO)O2)c(=O)n1 [decitabine] + O=C(Nc1ccccc1)c1cc([N+](=O)[O-])ccc1Cl [GW9662] (first compound 0.1 µM, partner dose 2 µM) | 116%
C[C@@H](Oc1cc(-c2cnn(C3CCNCC3)c2)cnc1N)c1c(Cl)ccc(F)c1Cl [Crizotinib] + O=c1cc(-c2cccc3c2Sc2ccccc2S3)oc(N2CCOCC2)c1 [KU55933] (first compound 0.2 µM, partner dose 1 µM) | 118%
CS(=O)(=O)CCNCc1ccc(-c2ccc3ncnc(Nc4ccc(OCc5cccc(F)c5)c(Cl)c4)c3c2)o1 [lapatinib] + OCCn1cc(-c2cnc3nnn(Cc4ccc5ncccc5c4)c3n2)cn1 [PF04217903] (first compound 0.8 µM, partner dose 1 µM) | 74.3%
Cc1cc(Nc2cc(N3CCN(C)CC3)nc(/C=C/c3ccccc3)n2)n[nH]1 + N#Cc1c(O)c2c(-c3ccc(-c4ccccc4O)cc3)csc2[nH]c1=O [A769662] (first compound 0.04 µM, partner dose 2 µM) | 90.9%
CCCS(=O)(=O)Nc1ccc(F)c(C(=O)c2c[nH]c3ncc(Cl)cc23)c1F + COc1cc2ncnc(Nc3ccc(Oc4ccccc4)cc3)c2cc1OC [SrcI1] (first compound 0.08 µM, partner dose 2 µM) | 397%
Nc1nc(F)nc2c1ncn2[C@@H]1O[C@H](CO)[C@@H](O)[C@@H]1O [fludarabine] + CO[C@@H]1[C@H](N(C)C(=O)c2ccccc2)C[C@H]2O[C@]1(C)n1c3ccccc3c3c4c(c5c6ccccc6n2c5c31)C(=O)NC4 [Midostaurin] (first compound 0.2 µM, partner dose 0.08 µM) | 35.6%
Nc1ncn([C@H]2C[C@H](O)[C@@H](CO)O2)c(=O)n1 [decitabine] + O=C(O)c1ccc(-c2c[nH]c3ncc(-c4ccccc4)cc23)cc1C1CCCC1 [GSK650394] (first compound 0.1 µM, partner dose 0.16 µM) | 206%
CN1CCN(c2ccc3nc(-c4c(N)c5c(F)cccc5[nH]c4=O)[nH]c3c2)CC1 [Dovitinib] + Oc1cc(-c2nc(-c3ccccc3)[nH]c2-c2ccncc2)ccc1Cl [L779450] (first compound 0.1 µM, partner dose 0.2 µM) | 406%
CS(=O)(=O)CCNCc1ccc(-c2ccc3ncnc(Nc4ccc(OCc5cccc(F)c5)c(Cl)c4)c3c2)o1 [lapatinib] + O=S(=O)(c1ccccc1)N(CC(F)(F)F)c1ccc(C(O)(C(F)(F)F)C(F)(F)F)cc1 [T0901317] (first compound 0.8 µM, partner dose 1.4 µM) | 133%
CNC(=O)c1cc(Oc2ccc(NC(=O)Nc3ccc(Cl)c(C(F)(F)F)c3)cc2)ccn1 [sorafenib] + O=C(O)c1ccc(-c2c[nH]c3ncc(-c4ccccc4)cc23)cc1C1CCCC1 [GSK650394] (first compound 0.4 µM, partner dose 0.16 µM) | 219%
CC(C)C[C@H](NC(=O)[C@H](Cc1ccccc1)NC(=O)c1cnccn1)B(O)O [Bortezomib] + NC(=O)Nc1cc(-c2cccc(F)c2)sc1C(=O)N[C@H]1CCCNC1 [AZD7762] (first compound 0.001 µM, partner dose 0.02 µM) | 79.4%
Nc1nc(F)nc2c1ncn2[C@@H]1O[C@H](CO)[C@@H](O)[C@@H]1O [fludarabine] + NCC(=O)Nc1ccc(-n2nc(C(F)(F)F)cc2-c2ccc3c(ccc4ccccc43)c2)cc1 [OSU03012] (first compound 0.2 µM, partner dose 1 µM) | 82.6%
CC(C)C[C@H](NC(=O)[C@H](Cc1ccccc1)NC(=O)c1cnccn1)B(O)O [Bortezomib] + COc1cc2c(Oc3ccc4[nH]c(C)cc4c3F)ncnc2cc1OCCCN1CCCC1 [cediranib] (first compound 0.001 µM, partner dose 0.4 µM) | 268%

Some of the entries so far, field by field:
O=C(O)[C@@H]1[O][Sb](=[O])([O][Sb]2(=[O])[O][C@H]([C@H](O)CO)[C@H](O)[C@H](C(=O)O)[O]2)[O][C@H]([C@H](O)CO)[C@@H]1O (stereo not given in full) [stibogluconate] + OCCn1cc(-c2cnc3nnn(Cc4ccc5ncccc5c4)c3n2)cn1 [PF04217903] (first compound 2 µM, partner dose 1 µM)
  cleaved PARP positive nuclei fraction: 77.4%
C[C@@H](Oc1cc(-c2cnn(C3CCNCC3)c2)cnc1N)c1c(Cl)ccc(F)c1Cl [Crizotinib] + Oc1cc(-c2nc(-c3ccccc3)[nH]c2-c2ccncc2)ccc1Cl [L779450] (first compound 0.2 µM, partner dose 0.2 µM)
  cleaved PARP positive nuclei fraction: 127%
